Measurements: publication PMC12179657
Where two headings read alike, the source gives them in different places. No constants are given. Whether binding was seen depends on the method and setting. Binding seen in cells or lysates may run through a third protein. Here binding means that the protein was enriched with, or labelled near, the bait; the list need not be complete.

Sequences of proteins named here, by UniProt entry; tags and fusion partners are left off.
UniProt P61290: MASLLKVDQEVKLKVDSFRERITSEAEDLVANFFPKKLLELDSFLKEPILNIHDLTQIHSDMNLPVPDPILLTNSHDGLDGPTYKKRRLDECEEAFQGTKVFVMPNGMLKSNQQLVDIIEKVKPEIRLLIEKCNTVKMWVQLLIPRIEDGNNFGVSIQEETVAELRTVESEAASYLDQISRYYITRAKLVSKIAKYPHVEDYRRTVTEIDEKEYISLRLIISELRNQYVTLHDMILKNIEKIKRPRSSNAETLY
UniProt O35685: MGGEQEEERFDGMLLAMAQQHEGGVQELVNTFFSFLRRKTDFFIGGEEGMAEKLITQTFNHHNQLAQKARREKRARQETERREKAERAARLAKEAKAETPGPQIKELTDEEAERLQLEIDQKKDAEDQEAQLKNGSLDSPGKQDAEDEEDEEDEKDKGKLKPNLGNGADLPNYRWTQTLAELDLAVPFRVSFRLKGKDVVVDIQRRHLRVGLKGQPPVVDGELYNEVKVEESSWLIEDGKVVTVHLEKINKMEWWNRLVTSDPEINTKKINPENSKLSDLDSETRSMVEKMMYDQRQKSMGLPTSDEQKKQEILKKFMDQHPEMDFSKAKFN

Tests used:
[1] = target: proteasome activator complex subunit 3 (PSME3), endogenous (mouse (endogenous in C2C12)) (UniProt P61290); assay: affinity purification with mass spectrometry; label-free quantitative mass spectrometry of the PSME3 coprecipitate from C2C12 cells, cycling and at Days 0 and 1 of differentiation; IgG control
[2] = target: proteasome activator complex subunit 3 (PSME3), endogenous (mouse (endogenous in C2C12)) (UniProt P61290); assay: as above; remark: listed apart in the source

Row | binding [1] | binding [2] | Molecule
1 | binds |  | NUDC, endogenous (from UniProt O35685 1-332)
2 |  | binds | RPRD1A, endogenous (protein, UniProt Q8VDS4 1-312) MSAFSEAALEKKLSELSNSQQSVQTLSLWLIHHRKHSRPIVTVWERELRKAKPNRKLTFLYLANDVIQNSKRKGPEFTKDFAPVIVEAFKHVSSETDESCKKHLGRVLSIWEERSVYENDVLEQLKHALYGDKKARKRTYEQIKVDENENCSSLGSPSEPPQTLDLVRALQDLENAASGDAAVHQRIASLPVEVQEVSLLEKITDKESGERLSKMVEDACMLLADYNGRLAAEIDDRKQLTRMLADFLRCQKEALAEKEHKLEEYKRKLARVSLVRKELRARIQSLPDLSRLPNVTGSHMHLPFAGDIYSED
